Measured values: PubChem BioAssay AID1508600 (Functional Genomics Laboratory (NCATS/FGL), 2020)
The campaign covered roughly 53,000 sequences. About 3,700 (7%) were called active.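 The calls were made as follows: active = gene knockdowns whose robust z-score for IL-1 alpha signal is at least 2 or at most -2, so actives lie on both sides; inactive = the rest.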 The list shows a part of the results.

Test: Components of the Cytosolic LPS Sensing Pathway: Gene Identification via Genome-wide siRNA Screen;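 also: robust z of the log signal after scaling to non-targeting control siRNA wells of the plate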
Conditions: RAW264.7 macrophages, IL-1a HTRF, actives lie on both sides, screened at 100 nM (by protocol), cells primed 5 h with Pam3CSK4 first
Procedure, shortened: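 RAW264.7; siRNA 100 nM final, RNAiMAX, 48h 37 degrees C; Pam3CSK4 5 h; LipidA + TransIT-TKO 24 h; IL-1a HTRF; CellTiter-Glo viability; robust z vs negative-control median.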

| Sequence | z-score |
| --- | --- |
| GCCGUGUUUACAGAAUGUUTT against Nkx2-2 | inactive: -0.0892 |
| CCCAAUUUUUAGUUGCUAATT against Rab2b | inactive: 0.0495 |
| CGAACUUUGUCAUGUCCAUTT against 9930111J21Rik2 | inactive: 0.162 |
| GGAUUUCAAAACCGACUUGTT against H3f3b | inactive: 0.0842 |
| CCCUCUCCUCAGAUAUACUTT against Grasp | inactive: -1.35 |
| GCAGAUCACCUUUUGUUUATT against Gdap2 | inactive: 0.767 |
| CCUCGUAAGACUGUAAAAGTT against Neurog2 | inactive: -0.0769 |
| GGUGAAGUAUGGCAACAUGTT against Unc93b1 | inactive: 1.33 |
| GCCUCUAUGUUACCACCUCTT against Fam110c | inactive: -1.61 |
| CCAUAAAGAACAUCACUAATT against Igf2bp2 | inactive: 0.34 |
| GGGUUAGGUUGGGAUGGAUTT against Ccnd3 | inactive: -0.466 |
| GGGAUCUAAGGAACAGAGATT against Fgf8 | inactive: 1.1 |
| GGGAUCAAAGGAAAUUACATT against Vnn1 | inactive: -1.52 |
| GGAAUGAGAAGAGAGGAUCTT against Rpp25 | inactive: -0.239 |
| GGACAGCACUAACACAUCCTT against Slamf9 | inactive: -0.413 |
| GGUCUCCACCUCCAUAUCCTT against Slc15a3 | inactive: -1.74 |
| CCGAGGAGAACACUUGUAGTT against Opn4 | active: -2.54 |
| GCAAUCCAGAGGUACGCUATT against Hgf | inactive: 0.031 |
| GCUCUUCUCAAGUAUGACGTT against Chrna6 | inactive: 0.717 |
| GAGAAGAAGACAAAGAUCCTT against Defb7 | inactive: -0.12 |
| CCAAGCUAGAUAAAGAAAGTT against Yap1 | inactive: -1.68 |
| CCUCUACUCCUUAUUGUCUTT against Ctf2 | inactive: -0.753 |
| GGACAGGAGUUUAAAAUUATT against Apip | inactive: 0.679 |

| Sequence | z-score |
| --- | --- |
| CCUCAAAGGCCCUACCAAUTT against Tle6 | inactive: -1.66 |
| CCAAAGUCAUAAUUCCAACTT against Timm23 | inactive: 0.202 |
| GGCUGCUUUAAAGAGAUUCTT against Olfr1045 | inactive: 0.528 |
| GCACAACAUACCCUGUGGUTT against Syn1 | active: -2.72 |
| GGAAAUGCUCCUCUAGGAUTT against Ppcs | inactive: 0.039 |
| GGCAAAGCAGGGAUCUAGATT against Noxo1 | inactive: -0.431 |
| GAAAAAUGUGGAAGAGAUUTT against Olfr1219 | inactive: -0.909 |
| GGACAAGGAUAGUAGUAAGTT against Parp1 | inactive: -0.122 |
| GGAGAUUUGGAAAAGGCAATT against Clec4f | inactive: 0.179 |
| GGCCAUUUGGAAACUAUUATT against Anapc11 | inactive: -0.109 |
| CCUUGUAUAUGAGCGAAAATT against Cd177 | inactive: -0.215 |
| CCAAUAGUGCUGAUAAUGUTT against Wrap53 | inactive: 0.337 |
| GGAAACAUCCACAAAGAGUTT against Kri1 | inactive: 0.532 |
| GGGACAAAGAAAAUCUACUTT against Ehf | inactive: 0.637 |
| CCUACGUGUUUAAGAUGAATT against Alk | inactive: 0.499 |
| GGUUCCGUUUAAUGAAGUGTT against Fxr1 | inactive: -0.542 |
| GGGAAUAUGUCUUGUGAUATT against Ddo | inactive: 0.141 |
| GACCUUCCUGUCUUCCCUCTT against Cmtm5 | inactive: 1.68 |
| GCCUGUGGAGCCAAUCUACTT against Ephx2 | inactive: -0.211 |
| CCUAUUAAAUCUCUGUAAGTT against Cep164 | inactive: -0.162 |
| GGAGAGAUGAGAUUUUUCATT against Rad54b | inactive: 1.07 |
| GGAUUCACCUGUUAUCUUUTT against Tapbpl | inactive: 0.303 |
| CCACUCAGGAAAUGUUAAGTT against Mrpl53 | inactive: 0.645 |

| Sequence | z-score |
| --- | --- |
| GGAAAUGUUGCAUUUUUGATT against Ltf | inactive: 0.312 |
| CCUUUCAGGCCAAUUGGCATT against Ube2l6 | inactive: 0.0844 |
| GGGAGAACGGGUUCUCUUUTT against Sox12 | inactive: 1.36 |
| CGGGUUUGUAAUAUUGUAUTT against Mblac2 | inactive: -0.365 |
| CCUAUGAAGGACACAGACUTT against Trim9 | inactive: 1.09 |
| CCACAAAUAUAUGGGUUACTT against Tbc1d5 | inactive: 1.21 |
| GGUACCAUCACGUUGUGUATT against M6pr | inactive: -0.76 |
| GCGUGCAACAUGUUCUGUATT against Wfdc13 | inactive: 0.0377 |
| CCCGGUCAUAUAUGCCAUCTT against Gpr135 | inactive: -0.416 |
| GGACAAGAUGAUCUGCCUATT against Lrrc8a | inactive: 0.722 |
| GGAUGGAUCAAUUCAACCATT against Tmem50a | inactive: -1.73 |
| GGGUUUGGGAACAUCGAUGTT against Angptl2 | inactive: 0.66 |
| GGUAUAAAGCCUCAGUUUUTT against Gatad1 | inactive: 0.137 |
| CCAUUGUACAGAAAAACACTT against Abhd18 | inactive: 0.41 |
| GCGUGGAUCAACUCAUGGATT against Naxe | inactive: -0.718 |
| GGAUAAUUAUAGGAAGAGCTT against Ncapd3 | inactive: -0.507 |
| GCCGUUGAGUAUAAAACUCTT against Stfa1 | inactive: -1.16 |
| GGUCCUUAUCGCUUGGAUGTT against Vwa8 | inactive: -0.202 |
| GGGAUUUGCCAAAGAAUAGTT against AI597479 | inactive: 0.875 |
| GGAAUCGGUGGCCAUCAAUTT against Olfr771 | inactive: 0.458 |
| GGAAUGGUUAUGAAUUUGATT against Pts | inactive: 0.0181 |
| GCAAGUCAUGCGAAUACAATT against Chrdl1 | inactive: 0.18 |

Taken from above:
GGAAAUGUUGCAUUUUUGATT against Ltf | z-score: inactive: 0.312
GGAUAAUUAUAGGAAGAGCTT against Ncapd3 | z-score: inactive: -0.507
GGGUUUGGGAACAUCGAUGTT against Angptl2 | z-score: inactive: 0.66
GCGUGGAUCAACUCAUGGATT against Naxe | z-score: inactive: -0.718
